{"source": "paper PMC8137916", "key": {"[1]": {"target": "T1, PfSRP14 (residues 1-104), SRP14 from Plasmodium falciparum (Plasmodium falciparum) (UniProt F2X1X6)", "T1 sequence": "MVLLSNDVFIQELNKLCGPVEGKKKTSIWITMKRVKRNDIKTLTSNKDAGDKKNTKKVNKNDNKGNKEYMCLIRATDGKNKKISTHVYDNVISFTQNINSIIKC", "assay": "SAXS; purified heterodimer in solution, 20°C, beamline BM29 (ESRF), flow mode; ab initio envelope (DAMMIF/DAMMIN); both purified"}, "[2]": {"target": "T1, PfSRP14 (residues 1-104), SRP14 from Plasmodium falciparum (Plasmodium falciparum)", "assay": "SEC-MALS; co-expressed and co-purified heterodimer, ~1 mg/mL, Superdex 200 10/300, 4°C, 20 mM HEPES pH 7.5, 150 mM NaCl, 10 mM MgCl2, 10 mM KCl, 1 mM DTT; both purified"}}, "note": "No constants are given. Whether binding was seen depends on the method and setting. Some results given as binding are weak or reduced against the parent protein; the word gives no strength."}
{"binder": "PfSRP9 (residues 1-103), SRP9 from Plasmodium falciparum (protein, UniProt F2X1X5 1-103) MVYAESWNDFIHTTRNIISKSPDKTRYVIKLHRPSETIIVKVTDNNNSIMYKLDKNDNMKKIEELNSLFLMWGTSENPNEPFPLKMNKITDKGTIDQKMKKTK", "values": [{"measurement": "binding", "setting": "[1]", "result": "binds"}, {"measurement": "binding", "setting": "[2]", "result": "binds"}]}
